# From the supplement of paper PMC8728848
# Some of the results follow.
# B1: BSR4 (Toxoplasma gondii), Q95NL6 (protein)
# chain: MVMMGSMQQRRGGLRSNARQLLAVCMSGVVFFSSGQAVADNLLEGLLHRTLQQQVEVTSRLTVAGSDAKCDFFTPATQDSPPVSGSLTLSKGRMTATFECSATQALSISTIPTNIEQNVCDPKKTTNGTVCQFGANGSAGTEVTLKDLLETDRIVNWKVNEQREESNKSQKWSLELHNEDLPLTDKAFVVGCQATSAARGTESGKTAACKLTVNVEARASSLAENNVVTCAYGKGSNPNPVEVEMSTEKNTLTINCGSDGSLQPTTYAEEYCVADSKDVNRCSTTRFVEIFPKFLKSWWVTETQKRTSATLTIPQTDLPEADQQFLVGCVPKKTAPEDPKKDKESGTETGAPTSCTVLVTVKAASSASHASPTVQILAAASSAAA
# Assays:
# Assay in all cases: glycan array binding signal (z-score within array); higher = stronger binding
# Settings in all cases: glycan notation: IUPAC condensed, linker removed
# [1] = biological target: GalNAc(b1-3)Gal(a1-4)Gal(b1-4)GlcNAc
# Outline: (§1)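 The binding signal is a Z-score computed within each array. Data were drawn from 3228 arrays in the Consortium for Functional Glycomics database, restricted to those with a known protein sequence. Scores were averaged over arrays of the same protein sequence at different concentrations or buffers, and over linkers, and negative values can be taken as non-binding.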
# [2] = biological target: GalNAc(b1-3)Gal(a1-4)Gal(b1-4)GlcNAc(b1-3)Gal(b1-4)Glc
# Outline: as §1
# [3] = biological target: GalNAc(b1-3)Gal(a1-6)Gal(b1-4)Glc
# Outline: as §1
# GalNAc(b1-3)GalNAc = biological target: GalNAc(b1-3)GalNAc
# Outline: as §1
# GalNAc(b1-4)GlcNAc = biological target: GalNAc(b1-4)GlcNAc
# Outline: as §1
# [4] = biological target: GalNAc(b1-4)GlcNAc(b1-2)Man(a1-3)[GalNAc(b1-4)GlcNAc(b1-2)Man(a1-6)]Man(b1-4)GlcNAc(b1-4)GlcNAc
# Outline: as §1
# Glc(a1-4)Glc = biological target: Glc(a1-4)Glc
# Outline: as §1
# Glc(a1-6)Glc(a1-6)Glc = biological target: Glc(a1-6)Glc(a1-6)Glc
# Outline: as §1
# Glc(b1-4)Glc = biological target: Glc(b1-4)Glc
# Outline: as §1
# Glc(b1-6)Glc = biological target: Glc(b1-6)Glc
# Outline: as §1
# GlcA(b1-3)Gal = biological target: GlcA(b1-3)Gal
# Outline: as §1
# GlcA(b1-3)GlcNAc = biological target: GlcA(b1-3)GlcNAc
# Outline: as §1
# GlcA(b1-6)Gal = biological target: GlcA(b1-6)Gal
# Outline: as §1
# [5] = biological target: GlcNAc(a1-3)Gal(b1-4)GlcNAc
# Outline: as §1
# [6] = biological target: GlcNAc(a1-4)Gal(b1-3)GlcNAc
# Outline: as §1
# [7] = biological target: GlcNAc(a1-4)Gal(b1-4)GalNAc
# Outline: as §1
# [8] = biological target: GlcNAc(a1-4)Gal(b1-4)GlcNAc
# Outline: as §1
# [9] = biological target: GlcNAc(a1-4)Gal(b1-4)GlcNAc(b1-3)Gal(b1-4)Glc
# Outline: as §1
# [10] = biological target: GlcNAc(a1-4)Gal(b1-4)GlcNAc(b1-3)Gal(b1-4)GlcNAc
# Outline: as §1
# [11] = biological target: GlcNAc(a1-4)Gal(b1-4)GlcNAc(b1-3)Gal(b1-4)GlcNAc(b1-3)Gal(b1-4)GlcNAc
# Outline: as §1
# [12] = biological target: GlcNAc(a1-4)Gal(b1-4)GlcNAc(b1-3)Gal(b1-4)[Fuc(a1-3)]GlcNAc(b1-3)Gal(b1-4)[Fuc(a1-3)]GlcNAc
# Outline: as §1
# [13] = biological target: GlcNAc(a1-6)Gal(b1-4)GlcNAc
# Outline: as §1
# [14] = biological target: GlcNAc(b1-2)Gal(b1-3)GalNAc
# Outline: as §1
# [15] = biological target: GlcNAc(b1-2)Man(a1-3)[GlcNAc(b1-2)Man(a1-6)]Man(b1-4)GlcNAc(b1-4)GlcNAc
# Outline: as §1
# [16] = biological target: GlcNAc(b1-2)Man(a1-3)[GlcNAc(b1-2)Man(a1-6)]Man(b1-4)GlcNAc(b1-4)[Fuc(a1-6)]GlcNAc
# Outline: as §1
# [17] = biological target: GlcNAc(b1-2)[GlcNAc(b1-4)]Man(a1-3)[GlcNAc(b1-2)Man(a1-6)]Man(b1-4)GlcNAc(b1-4)GlcNAc
# Outline: as §1
# GlcNAc(b1-3)Gal = biological target: GlcNAc(b1-3)Gal
# Outline: as §1
# [18] = biological target: GlcNAc(b1-3)Gal(b1-3)GalNAc
# Outline: as §1
# GlcNAc(b1-3)Gal(b1-4)Glc = biological target: GlcNAc(b1-3)Gal(b1-4)Glc
# Outline: as §1
# [19] = biological target: GlcNAc(b1-3)Gal(b1-4)GlcNAc
# Outline: as §1
# [20] = biological target: GlcNAc(b1-3)Gal(b1-4)GlcNAc(b1-3)Gal(b1-4)GlcNAc
# Outline: as §1
# GlcNAc(b1-3)GalNAc = biological target: GlcNAc(b1-3)GalNAc
# Outline: as §1
# GlcNAc(b1-3)Man = biological target: GlcNAc(b1-3)Man
# Outline: as §1
# [21] = biological target: GlcNAc(b1-3)[GlcNAc(b1-4)][GlcNAc(b1-6)]GlcNAc
# Outline: as §1
# [22] = biological target: GlcNAc(b1-3)[GlcNAc(b1-6)]Gal(b1-4)GlcNAc
# Outline: as §1
# [23] = biological target: GlcNAc(b1-3)[GlcNAc(b1-6)]GalNAc
# Outline: as §1
# [24] = biological target: GlcNAc(b1-4)Gal(b1-4)GlcNAc
# Outline: as §1
binder,measurement,setting,value
B1,glycan array binding signal (z-score),[1],0.229
same,glycan array binding signal (z-score),[2],-0.584
same,glycan array binding signal (z-score),[3],-0.617
same,glycan array binding signal (z-score),GalNAc(b1-3)GalNAc,-0.482
same,glycan array binding signal (z-score),GalNAc(b1-4)GlcNAc,0.106
same,glycan array binding signal (z-score),[4],0.841
same,glycan array binding signal (z-score),Glc(a1-4)Glc,-0.262
same,glycan array binding signal (z-score),Glc(a1-6)Glc(a1-6)Glc,-0.956
same,glycan array binding signal (z-score),Glc(b1-4)Glc,-0.248
same,glycan array binding signal (z-score),Glc(b1-6)Glc,-0.765
same,glycan array binding signal (z-score),GlcA(b1-3)Gal,0.225
same,glycan array binding signal (z-score),GlcA(b1-3)GlcNAc,-0.176
same,glycan array binding signal (z-score),GlcA(b1-6)Gal,0.829
same,glycan array binding signal (z-score),[5],-0.804
same,glycan array binding signal (z-score),[6],-0.156
same,glycan array binding signal (z-score),[7],-0.02
same,glycan array binding signal (z-score),[8],0.47
same,glycan array binding signal (z-score),[9],-0.13
same,glycan array binding signal (z-score),[10],0.282
same,glycan array binding signal (z-score),[11],-0.25
same,glycan array binding signal (z-score),[12],1.8
same,glycan array binding signal (z-score),[13],-0.444
same,glycan array binding signal (z-score),[14],0.324
same,glycan array binding signal (z-score),[15],-0.087
same,glycan array binding signal (z-score),[16],7.79
same,glycan array binding signal (z-score),[17],-0.586
same,glycan array binding signal (z-score),GlcNAc(b1-3)Gal,-0.636
same,glycan array binding signal (z-score),[18],1.23
same,glycan array binding signal (z-score),GlcNAc(b1-3)Gal(b1-4)Glc,-0.877
same,glycan array binding signal (z-score),[19],-0.948
same,glycan array binding signal (z-score),[20],-0.414
same,glycan array binding signal (z-score),GlcNAc(b1-3)GalNAc,-0.565
same,glycan array binding signal (z-score),GlcNAc(b1-3)Man,0.283
same,glycan array binding signal (z-score),[21],-0.7
same,glycan array binding signal (z-score),[22],-0.502
same,glycan array binding signal (z-score),[23],-0.348
same,glycan array binding signal (z-score),[24],-0.779

# 2 entries picked at random from those above:
binder,measurement,setting,value
B1,glycan array binding signal (z-score),[24],-0.779
same,glycan array binding signal (z-score),Glc(b1-6)Glc,-0.765
